According to PubChem BioAssay (Tox21):
Several values for one entry are separate records, joined by “and”; a condition that tells them apart may be missing. Equal values may be shown once. Inconclusive means that the source gave no clear call. Such entries were picked first, then a sample of the others. Potencies beside an inconclusive call are fits to weak or partial responses and may not hold up. Activity calls are given as the source filed them. Calls come from the whole dose curve.

assay: p53 small molecule agonists, cell-based qHTS assay with human liver microsomes (AID 1963577); conditions: HCT-116 p53RE-bla with human liver microsomes, ratio, 16 h; activation: at 66 µM (top of the series) unless noted;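 for activation: p53 response element beta-lactamase reporter cells with liver microsomes plus NADPH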
Outline: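 Steps: plate p53RE-bla cells, incubate 5 h at 37 C; add compound in DMSO; add microsomes (0.5 mg/mL final) and NADPH (0.5 mg/mL final); incubate 16 h at 37 C; add LiveBLAzer, 2 h RT; read fluorescence.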
% is set by controls: 0 for no effect and ±100 for the full control effect; potency is the fitted concentration of half-maximal effect.

SMILES	Potency	activation
OCc1c[nH]c2ccccc12	inconclusive: 14.5 µM [fluorescent]	
c1ccsc1	inactive	
O=S(=O)(O)c1ccc(Nc2nc(Nc3ccc(/C=C/c4ccc(Nc5nc(Nc6ccc(S(=O)(=O)O)cc6)nc(N(CCO)CCO)n5)cc4S(=O)(=O)O)c(S(=O)(=O)O)c3)nc(N(CCO)CCO)n2)cc1	inconclusive: 30.9 µM [activator]	
Nc1c2c(nc3c1CCC3)CCCC2	inactive	
OC[C@@H](O)[C@H](O)[C@@H](O)[C@@H](O)CO	inactive	
CCCCOC(=O)c1ccccc1	inconclusive: 16.2 µM [fluorescent, partial curve, poor fit]	
COc1ccc2c(c1)c(CC(=O)OC/C=C(\C)CC/C=C(\C)CCC=C(C)C)c(C)n2C(=O)c1ccc(Cl)cc1		inconclusive: 6.66% [at 30.3 µM]
O=C(c1cc(O)c(O)c(O)c1)c1ccc(O)c(O)c1O	inconclusive: 11.2 µM [falling, full curve, poor fit]	
COC(=O)Nc1nc2ccc(Sc3ccccc3)cc2[nH]1	inactive	
C1CCC(SSC2CCCCC2)CC1	inactive	
Nc1nc(Cl)nc2c1ncn2[C@H]1C[C@H](O)[C@@H](CO)O1	inconclusive: 36.1 µM [fluorescent, partial curve, poor fit]	
CC12CCC(C1)C(C)(C)C2O (stereo not drawn)	inactive	
NC(=O)c1ccccc1O	inconclusive: 8.9 µM [rising, partial curve]	
C=CCn1cc[n+](C)c1	inactive	
c1ccc2c(c1)c1cccc3ccc4cccc2c4c31	inconclusive: 51 µM [activator, single point]	
COc1ccc2cc(C=O)ccc2c1	inactive	
c1ccc2cc(Nc3ccc(Nc4ccc5ccccc5c4)cc3)ccc2c1		inconclusive: 15.1%
O=c1ccc2ccccc2o1	inconclusive: 23.4 µM [activator, partial curve]	inconclusive: 21.6%
Cc1ccc2nc(-c3ccc(N)cc3)sc2c1S(=O)(=O)O	inconclusive: 14.3 µM [activator, partial curve, poor fit]	
CCc1c2c(nc3ccc(OC(=O)N4CCC(N5CCCCC5)CC4)cc13)-c1cc3c(c(=O)n1C2)COC(=O)[C@]3(O)CC	inconclusive: 0.251 µM [rising, full curve, poor fit]	

3 of the compounds above, with bars between the fields.
SMILES | Potency | activation
OCc1c[nH]c2ccccc12 | inconclusive: 14.5 µM [fluorescent] | 
Nc1nc(Cl)nc2c1ncn2[C@H]1C[C@H](O)[C@@H](CO)O1 | inconclusive: 36.1 µM [fluorescent, partial curve, poor fit] | 
O=c1ccc2ccccc2o1 | inconclusive: 23.4 µM [activator, partial curve] | inconclusive: 21.6%

Remaining list, next part.

SMILES	Potency	activation
CC(=O)N[C@H]1[C@H]([C@H](O)[C@H](O)CO)OC(C(=O)O)=C[C@@H]1N=C(N)N	inactive	
CCN(C)C(=O)Oc1cccc([C@H](C)N(C)C)c1	inconclusive: 1.58 µM [fluorescent, partial curve]	
Cc1c2ccccc2c(C)c2c1ccc1ccccc12	inactive	
CCCCCCCCC(=O)O	active: 39.5 µM and inconclusive: 36.3 µM [fluorescent, partial curve]	
Cc1ccc(C(C)C)cc1	inconclusive: 46.1 µM [fluorescent]	
O=c1[nH][nH]c2ccccc12		inconclusive: 17%
CCC(C)SSC(C)CC (stereo not drawn)	inactive	
CCC1(c2ccccc2)C(=O)NCNC1=O	inconclusive: 52.6 µM [fluorescent, single point]	inconclusive: 9.17% [at 30.3 µM]
Cc1ccc(Cl)cc1	inconclusive: 32.4 µM [rising, partial curve, poor fit]	
CC(=O)c1ccc2c(c1)N(CCCN(C)C)c1ccccc1S2	inconclusive: 0.397 µM [rising, partial curve, poor fit]	
OC(CCl)CCl	inconclusive: 51.3 µM [fluorescent, single point]	
CCCCC/C=C\C/C=C\CCCCCCCC(=O)NC(C)c1ccccc1 (stereo not drawn)	inconclusive: 7.93 µM [rising, single point]	
CN(C)[C@@H]1C(=O)C(C(N)=O)=C(O)[C@@]2(O)C(=O)C3=C(O)c4c(O)cccc4C[C@H]3C[C@@H]12	inconclusive: 19.9 µM [rising, partial curve]	
CCn1c2ccccc2c2cc(N)ccc21	inconclusive: 14.5 µM [rising, partial curve]	inconclusive: 22.6% and inconclusive: 8.25%
Nc1ccc2c(O)cc(S(=O)(=O)O)cc2c1	inactive	
O=C(Nc1cccc(Cl)c1)OCC#CCCl	inconclusive: 25.7 µM [falling, partial curve, poor fit]	
CC(C)NNC(=O)c1ccncc1	inactive	
CCCCc1nc2cccnc2n1Cc1ccc(-c2ccccc2-c2nnn[nH]2)cc1	inactive	
CCOC(=O)C1=C(C)NC(C)=C(C(=O)OCC)C1c1ccccc1/C=C/C(=O)OC(C)(C)C	inconclusive: 19.9 µM [fluorescent, partial curve]	
CCN(CC)c1ccc2c(C)cc(=O)oc2c1	inconclusive: 36.6 µM [fluorescent, partial curve] and inconclusive: 40.8 µM [fluorescent, partial curve]	
